The assay in a line: IkB Signaling. The conditions noted are these: ABC-DLBCL IkBa-CBG/CBR dual luciferase ratio (green luciferase fused to IkBa over red control in OCI-Ly3 lymphoma cells), 4 h. The method, boiled down:
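Luminescence ratio of IκBα-fused green versus native red beetle luciferase in OCI-Ly3 cells, 4 h post-doxycycline with compound; red signal alone, scaled from basal (0%) to zero light (-100%), flagged nonspecific or cytotoxic effects.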

The mark [1] stands for this setting: measured here: control luc red channel unless noted.

Some of the results follow. These are further read-outs of the screen, such as a control signal, another cell line or another target. No call is given for them. Compounds called inactive in the main read-out are mostly missing here. Potencies come from curve fits of mixed quality, noted in brackets.

As usually defined, the AC50 is the midpoint of the concentration-response curve, whichever way the signal moves. Regarding `COc1ccc(NC(=O)CSc2nc(-c3ccc(F)cc3)[nH]c2-c2ccc(C)cc2)cc1OC`, the AC50 under setting [1] was 10 µM [falling, partial curve].

As for `Cc1ccc(CNC(=O)c2cc(C)nc3c2c(C)nn3-c2ccc(C)cc2)cc1`, the AC50 under setting [1] was 25.1 µM [falling, partial curve, poor fit].

In the case of `c1ccc2c(c1)nc(-c1ccncc1)n1nnnc21`, under setting [1], the AC50 was 15.8 µM [falling, partial curve].

For the compound `CC(=O)c1ccc(NC(=O)c2cc3sccc3n2Cc2ccc(F)cc2)cc1`, the AC50 under setting [1] was 3.98 µM [rising, single point].

Regarding `CCCCCOC(=O)CSc1ncnc2sc3c(c12)CCC(C)C3` (centres undefined), the AC50 under setting [1] was 31.6 µM [falling, partial curve, poor fit].

For `COCCCN1C(=O)c2[nH]nc(-c3ccccc3O)c2C1c1cccc(Cl)c1` (centres undefined), under setting [1], the concentration at half-maximal activity (AC50) was 31.6 µM [falling, single point].

For the compound `Cc1ccc2nc3sc(C(=O)NCCCN(C)c4ccccc4)cc3cc2c1`, the AC50 under setting [1] is 10 µM [falling, partial curve].

As to `Clc1ccc(-c2nc(-c3ccccn3)no2)cc1Cl`, the AC50 under setting [1] is 2.51 µM [falling, full curve].

Turning to `COc1ccccc1CNC(=O)CCC1N=C2c3ccccc3N=C(SCc3ccc(C)cc3C)N2C1=O` (centres undefined), under setting [1], the AC50 is 12.6 µM [falling, partial curve].

In the case of `COc1ccc(NC(=O)CN(c2cc(C)cc(C)c2)S(=O)(=O)c2c(C)noc2C)cc1Cl`, under setting [1], the AC50 was 15.8 µM [falling, partial curve].

In the case of `CC(C)(C)C1CCc2nc(NC(=O)Cc3cn4ccsc4n3)sc2C1` (centres undefined), under setting [1], the AC50 was 39.8 µM [falling, single point].

With `O=C(NCCN1CCCCC1)c1ccc(I)cc1`, the concentration at half-maximal activity (AC50) under setting [1] is 15.8 µM [rising, partial curve].

Turning to `COc1ccc(-c2nc(SCC(=O)Nc3ccc4c(c3)OCCO4)c(-c3ccc(C)cc3)[nH]2)cc1OC`, the AC50 under setting [1] is 10 µM [falling, partial curve].

Take `COc1ccc(NC(=O)CSc2ccc3nc(-c4ccccc4)cn3n2)cc1OC`: the AC50 under setting [1] was 15.8 µM [rising, single point].

With `Cc1ccccc1Nc1c(-c2ccc(N3CCOCC3)cc2)nc2ccccn12`, under setting [1], the AC50 is 25.1 µM [falling, partial curve].

With `Cc1ccc(CNC(=O)CN2C(=O)COc3ccc(S(=O)(=O)Nc4ccccc4)cc32)cc1`, the AC50 under setting [1] is 25.1 µM [falling, partial curve].

Turning to `c1ccc(-c2cc(-c3nn4c(-c5ccco5)nnc4s3)c3ccccc3n2)cc1`, under setting [1], the AC50 is 2.51 µM [falling, full curve].

`CCCCNC(=O)c1ccc2c(c1)ncn2-c1cc(OC)ccc1OC`: the AC50 under setting [1] is 7.94 µM [rising, single point].

With `O=C(Nc1ccccc1F)c1ccc2c(Cl)c3c(nc2c1)CCC3`, the concentration at half-maximal activity (AC50) under setting [1] was 1.26 µM [falling, partial curve].

For the compound `CCOc1ccccc1CNCc1cccn1-c1nnc(N2CCN(c3ccccc3)CC2)s1`, under setting [1], the concentration at half-maximal activity (AC50) was 20 µM [falling, single point].

Consider `COc1ccc2[nH]cc(CCNc3nc(-c4cccnc4)nc4ccccc34)c2c1`, for which, under setting [1], the concentration at half-maximal activity (AC50) was 3.16 µM [falling, partial curve] [measured here: IkB-luc green channel].

With `O=C(c1noc2c1CCCC2)N1CCN(C(c2ccccc2)c2ccccc2)CC1`, the AC50 under setting [1] is 7.94 µM [falling, partial curve].

For `Cc1ccc2nc(NC(=O)CSc3nc4c(c(=O)n3C)SC(C)C4)sc2c1` (centres undefined), the AC50 under setting [1] is 6.31 µM [falling, partial curve].

Consider `COc1ccccc1NC(=O)CN1CCN(c2ccc(Cl)cc2)CC1`, for which the AC50 under setting [1] was 12.6 µM [falling, partial curve].

Take `NC(=O)c1oc2ccc(Cl)cc2c1N`: the AC50 under setting [1] was 15.8 µM [falling, partial curve].

Take `COc1ccc(S(=O)(=O)Nc2ccc(-c3cn4c(C)csc4n3)cc2)cc1`: under setting [1], the AC50 is 0.794 µM [falling, full curve].

For `COc1ccccc1S(=O)(=O)Cc1ccc(C(=O)NCc2ccc(Cl)cc2)o1`, under setting [1], the AC50 was 15.8 µM [falling, single point].

On to `COc1cc(NC(=O)CCc2c(C)nn(-c3ccc4nnc(C)n4n3)c2C)cc(OC)c1OC`, for which, under setting [1], the AC50 was 7.94 µM [rising, partial curve, poor fit].

For the compound `CCOC(=O)C1CCN(C(=O)COc2cccc(C)c2)CC1`, the AC50 under setting [1] was 3.16 µM [falling, partial curve].

Take `O=C(CSc1nc2c([nH]c3ccccc32)c(=O)n1-c1ccccc1)N1CCc2ccccc21`: the AC50 under setting [1] was 31.6 µM [rising, partial curve].

With `COc1ccc(C2C(=O)N(C3CCCCCC3)CC(=O)N2Cc2ccc(C)cc2)cc1` (centres undefined), the AC50 under setting [1] is 39.8 µM [falling, single point].

Regarding `O=C1CC(c2nc(-c3ccc(Cl)cc3)no2)CN1c1ccc2c(c1)OCCO2` (centres undefined), the AC50 under setting [1] was 25.1 µM [falling, single point].

On to `O=C1C(c2ccc(F)cc2)N(CCc2ccc(Cl)cc2)C(=O)CN1C1CCCCCC1` (centres undefined), for which, under setting [1], the AC50 was 5.01 µM [falling, partial curve, poor fit].

`CC(C)(C)CC(=O)NCC(c1ccc2c(c1)OCO2)N1CCN(c2ccccc2)CC1` (centres undefined): the AC50 under setting [1] is 31.6 µM [falling, partial curve].

For `CC(=O)c1ccc(NC(=O)c2cc(-c3ccc(C)s3)nc3ccccc23)cc1`, under setting [1], the AC50 is 20 µM [falling, single point].

On to `O=C(CSc1nccn1-c1ccc(Cl)cc1)Nc1ccc(Cl)c(Cl)c1`, for which the AC50 under setting [1] is 20 µM [falling, single point].

In the case of `COc1cc(NC(=O)N2c3ccccc3Sc3ccccc32)cc(OC)c1`, the AC50 under setting [1] was 10 µM [falling, partial curve].

Turning to `CN1CCN(c2ccc(Cl)cc2NC(=O)C2COc3ccccc3O2)CC1` (centres undefined), under setting [1], the AC50 is 7.94 µM [falling, full curve].

Turning to `CCOC(=O)N1CCc2c(sc3c2c(=O)n(CCc2ccccc2)c(=O)n3CC(=O)Nc2ccc(C)cc2)C1`, the AC50 under setting [1] is 10 µM [falling, partial curve].

Turning to `COc1ccccc1C(=O)NCC(c1cccnc1)N1CCc2ccccc2C1` (centres undefined), the AC50 under setting [1] was 0.158 µM [falling, full curve].

For the compound `Cc1cccc(N2CCN(C(=O)CN3C(=O)CSc4c3c(C)nn4-c3ccccc3)CC2)c1C`, the concentration at half-maximal activity (AC50) under setting [1] was 20 µM [falling, partial curve].

As for `CCCOC(=O)c1c(NC(=O)C(C)Sc2nc(-c3ccccc3)cc(C(F)(F)F)n2)sc(C(=O)N(C)C)c1C` (centres undefined), the AC50 under setting [1] is 10 µM [falling, partial curve].

As to `CN1CCc2c(sc(NC(=O)CSc3ccccc3)c2-c2nc3ccccc3s2)C1`, the AC50 under setting [1] was 10 µM [rising, partial curve, poor fit].

Take `O=C(N/N=C\c1ccc([N+](=O)[O-])o1)c1ccc(O)cc1`: the AC50 under setting [1] is 2 µM [falling, full curve].

Turning to `Cc1c(C)n(C(=O)CN2CCN(c3ccccn3)CC2)c2ccccc12`, the concentration at half-maximal activity (AC50) under setting [1] is 12.6 µM [falling, partial curve].

Take `COc1ccc(CCNC(=O)C2CCC(CNS(=O)(=O)c3ccc(C)cc3)CC2)cc1OC` (centres undefined): under setting [1], the AC50 is 1.26 µM [rising, full curve, poor fit].

`Cc1ccc(Cl)cc1NC(=O)Nc1nnc(N(C)Cc2ccccc2)s1`: the AC50 under setting [1] was 10 µM [falling, partial curve].

`CCC1CN(C(=O)N2CCC(C(=O)NCCc3ccccc3Cl)CC2)c2cc(C)ccc2O1` (centres undefined): the AC50 under setting [1] is 25.1 µM [falling, single point].

Consider `CCCCC(=O)NCCc1c(Cc2ccccc2)[nH]c2ccccc12`, for which the AC50 under setting [1] is 25.1 µM [falling, partial curve].

In the case of `COc1cc(NC(=O)CN2c3ccccc3S(=O)(=O)c3ccccc32)cc(OC)c1`, the AC50 under setting [1] was 2.51 µM [falling, full curve].

Turning to `COCCNC(=O)CSc1nc(-c2cc(OC)c(OC)c(OC)c2)[nH]c1-c1ccc(Cl)cc1`, the half-maximal activity concentration (AC50) under setting [1] was 25.1 µM [falling, single point].

Regarding `COc1cc(NCC[C@@H]2CCCCN2)c2ncccc2c1`, under setting [1], the AC50 was 3.16 µM [falling, partial curve].

With `Cc1ccc(C(=O)CSc2nc(-c3ccccc3)nc3c2CCCC3)c(C)c1`, under setting [1], the AC50 was 39.8 µM [falling, partial curve].

With `C#CCOC(=O)c1ccccc1C(=O)n1nnc2ccccc21`, under setting [1], the concentration at half-maximal activity (AC50) was 12.6 µM [falling, partial curve].

Regarding `Cn1cc(/C=N/n2cnc3scc(-c4ccc(Cl)cc4)c3c2=O)c2ccccc21`, the AC50 (measured here: IkB-luc green channel) is 3.16 µM [rising, partial curve] and the AC50 (measured here: control luc red channel) is 1 µM [rising, full curve, poor fit].

For the compound `COc1cccc(-c2ccc3ncnc(NCc4ccccc4)c3c2)c1`, the AC50 under setting [1] was 3.98 µM [falling, partial curve].

For the compound `CCOc1ccccc1NC(=O)c1ccc2c(Cl)c3c(nc2c1)CCC3`, the concentration at half-maximal activity (AC50) under setting [1] was 1.26 µM [falling, full curve].

As for `CC(C)(C)c1ccc(C(=O)Nc2ccc3c(c2)CCCN3C(=O)c2cccs2)cc1`, the AC50 under setting [1] was 3.98 µM [falling, full curve].

For `CCn1c(SCC(N)=O)nnc1-c1cc2c(C)nn(-c3ccccc3)c2s1`, the AC50 under setting [1] was 12.6 µM [falling, partial curve].

Consider `Cc1ccc(NC(=O)c2nc(S(C)(=O)=O)ncc2N(Cc2ccco2)Cc2cccs2)c(C)c1`, for which, under setting [1], the AC50 was 10 µM [falling, partial curve].

Take `CC(=O)N1CCc2nc3sc(C(=O)c4ccc(F)cc4)c(N)c3c(C(F)(F)F)c2C1`: the AC50 under setting [1] was 31.6 µM [falling, single point].

`Cc1ccc(Nc2nc(N)nc(CN3CCN(Cc4ccc5c(c4)OCO5)CC3)n2)cc1Cl`: the half-maximal activity concentration (AC50) under setting [1] was 12.6 µM [falling, partial curve].

Turning to `CCc1ccc(NC(=O)C(=O)NCC(c2cccnc2)N2CCN(c3ccc(F)cc3)CC2)cc1` (centres undefined), the AC50 under setting [1] is 20 µM [falling, partial curve].

Source of the values: PubChem BioAssay AID445 (National Center for Advancing Translational Sciences (NCATS), 2006).
